Results are given in words; binding and its absence hold for the method and conditions named. In cells and extracts the contact can be indirect. Some results given as binding are weak or reduced against the parent protein; the word gives no strength. For part of these data: Tags and fused reporters may be left off the sequences shown. Each block holds one molecule with its values, some of them ahead of it.
Assays:
[1] = biological target: T1, Ubiquitin carboxyl-terminal hydrolase L3 (UCHL3), endogenous in HCC cells (human (endogenous in HEP3B and HUH7)) (UniProt P15374); assay: co-IP; endogenous proteins in HEP3B and HUH7 lysates; anti-UCHL3 or anti-EEF1A1 antibody on magnetic beads, lysate overnight at 4 C, IgG control, western blot
T1 sequence: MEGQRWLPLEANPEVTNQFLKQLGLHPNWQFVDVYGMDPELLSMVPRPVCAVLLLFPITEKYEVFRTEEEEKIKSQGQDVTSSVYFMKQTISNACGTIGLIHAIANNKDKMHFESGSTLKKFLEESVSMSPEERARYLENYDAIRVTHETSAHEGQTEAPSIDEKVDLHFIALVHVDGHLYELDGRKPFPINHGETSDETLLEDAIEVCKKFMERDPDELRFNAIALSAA

Chains of the proteins cited; added tags and fusions are not shown. Lines headed by an entry give the natural chain unless they say otherwise; changes in a name come on top. A line that says so, or that is headed by a name, gives the form on record, which may keep a tag or linker. Residues count along the entry.
UniProt P68104: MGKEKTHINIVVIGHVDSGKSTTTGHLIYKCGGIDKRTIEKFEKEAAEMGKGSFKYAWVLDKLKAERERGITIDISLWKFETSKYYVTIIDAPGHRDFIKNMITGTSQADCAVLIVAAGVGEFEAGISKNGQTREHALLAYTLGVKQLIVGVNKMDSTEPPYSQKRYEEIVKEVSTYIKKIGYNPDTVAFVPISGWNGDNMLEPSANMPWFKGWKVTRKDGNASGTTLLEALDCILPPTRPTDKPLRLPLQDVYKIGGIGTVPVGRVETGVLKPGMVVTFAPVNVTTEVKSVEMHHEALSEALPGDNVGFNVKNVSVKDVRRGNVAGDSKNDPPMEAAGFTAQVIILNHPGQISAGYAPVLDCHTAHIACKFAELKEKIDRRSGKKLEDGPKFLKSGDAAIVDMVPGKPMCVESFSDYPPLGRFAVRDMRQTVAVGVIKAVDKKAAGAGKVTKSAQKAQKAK
Flag-tagged EEF1A1 domain 2 (aa239 to aa332): residues 239-332 of P68104

[2] = biological target: Flag-tagged full-length EEF1A1 (UniProt P68104); assay: co-IP; Flag-tagged EEF1A1 constructs transfected in 293T cells and HUH7 cells, immunoprecipitation with Flag antibody on magnetic beads, western blot for UCHL3
[3] = biological target: Flag-tagged EEF1A1 domain 2 (aa239 to aa332) (UniProt P68104); assay: as above

binding [1]: binds
Molecule: Eukaryotic translation elongation factor 1 alpha 1 (EEF1A1), endogenous in HCC cells (from UniProt P68104 1-462)

binding [2]: binds | binding [3]: binds
B1: UCHL3 in 293T and HUH7 cells transfected with Flag-tagged EEF1A1 constructs (enzyme, UniProt P15374 1-230)
chain: T1 sequence

— publication PMC11225194
